From patent US20210254024A1 come the findings set out here.

Sequences of proteins named here, by UniProt entry; tags and fusion partners are left off. A change or cut given only in a name is not applied to a line headed by its entry.
UniProt P06756: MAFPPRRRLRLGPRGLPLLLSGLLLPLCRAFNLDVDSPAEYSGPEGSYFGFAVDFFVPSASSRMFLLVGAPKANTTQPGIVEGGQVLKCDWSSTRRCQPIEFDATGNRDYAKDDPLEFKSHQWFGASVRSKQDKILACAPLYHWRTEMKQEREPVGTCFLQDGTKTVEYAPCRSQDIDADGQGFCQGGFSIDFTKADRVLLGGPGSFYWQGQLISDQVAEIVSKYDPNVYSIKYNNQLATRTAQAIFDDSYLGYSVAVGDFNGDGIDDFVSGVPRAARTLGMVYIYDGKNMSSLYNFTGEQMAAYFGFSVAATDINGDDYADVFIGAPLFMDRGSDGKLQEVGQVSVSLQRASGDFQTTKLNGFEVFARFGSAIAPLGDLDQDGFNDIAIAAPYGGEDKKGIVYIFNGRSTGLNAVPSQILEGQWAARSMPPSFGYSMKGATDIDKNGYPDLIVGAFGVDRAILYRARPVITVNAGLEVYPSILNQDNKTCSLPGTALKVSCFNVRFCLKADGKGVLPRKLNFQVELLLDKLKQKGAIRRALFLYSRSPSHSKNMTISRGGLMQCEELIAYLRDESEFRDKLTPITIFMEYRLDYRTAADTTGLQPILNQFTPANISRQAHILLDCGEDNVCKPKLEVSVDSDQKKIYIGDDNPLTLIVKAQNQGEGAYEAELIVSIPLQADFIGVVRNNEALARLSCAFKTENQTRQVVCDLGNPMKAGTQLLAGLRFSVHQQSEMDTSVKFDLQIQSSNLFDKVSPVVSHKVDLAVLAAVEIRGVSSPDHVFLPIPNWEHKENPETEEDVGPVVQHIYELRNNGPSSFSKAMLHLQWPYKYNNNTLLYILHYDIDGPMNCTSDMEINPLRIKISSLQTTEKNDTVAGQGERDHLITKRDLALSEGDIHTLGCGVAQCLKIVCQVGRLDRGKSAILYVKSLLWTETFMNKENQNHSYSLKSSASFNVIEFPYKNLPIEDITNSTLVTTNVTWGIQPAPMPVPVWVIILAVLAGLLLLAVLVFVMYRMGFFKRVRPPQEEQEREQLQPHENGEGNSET

Results are given in words; binding and its absence hold for the method and conditions named. Some results given as binding are weak or reduced against the parent protein; the word gives no strength.

The target in assay [1] is αvβ5 integrin on M21 tumor cells (UniProt P06756). The experiment in a line: M21 cell adhesion assay: uricase coated at 0-100 ug/ml, fluorescent M21 cells (express αvβ3 and αvβ5), bound cells read by total fluorescence.
Assay [2] addresses αvβ3 integrin on M21 tumor cells (UniProt P06756). Described as above.

B1: RGD containing Arthrobacter globiformis uricase (enzyme)
chain: MGSHHHHHHGARQTATAETSTGTKVVLGQNQYGKAEVRLVKVTRNTARHEIQDLNVTSQLRGDFEAAHTAGDNAHVVATDTQKNTVYAFARDGFATTEEFLLRLGKHFTEGFDWVTGGRWAAQQFFWDRINDHDHAFSRNKSEVRTAVLEISGSEQAIVAGIEGLTVLKSTGSEFHGFPRDKYTTLQETTDRILATDVSARWRYNTVEVDFDAVYASVRGLLLKAFAETHSLALQQTMYEMGRAVIETHPEIDEIKMSLPNKHHFLVDLQPFGQDNPNEVFYAADRPYGLIEATIQREGSRAD
Turning to B1, the binding result in assay [1] and in assay [2] was “binds” in each case.
